In PubChem BioAssay AID651640 (Broad Institute, 2012):
Hit rate of the full screen: of about 350,000 compounds, about 6,000 (1.7%) were called active. This list was built around the results that the source calls inconclusive (neither active nor inactive); the mix of calls is not that of the screen. Cut-off read from the data, not from the text of the source: active = CPE inhibition above about 20% (passing the limit was not always enough); inconclusive = no clear call, values can overlap the other calls; tested in BHK-21 cells. Some compounds were tested as several samples or in several runs, with calls that do not always agree.

Experiment: protection of cells from dengue 2 killing – plate reader, single concentration, primary screen (AID 651640);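 note: 0% = median of neutral control wells and 100% = median of positive control wells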
Conditions: DENV2-infected cells, cytopathic effect rescue, at 9.99 µM, stronger effect = higher value

SMILES	CPE inhibition
C[C@H]1CN([C@@H](C)CO)S(=O)(=O)c2ccc(-c3ccccc3F)cc2O[C@H]1CN(C)C(=O)C1CC1	inconclusive: 28.4%
Cc1noc(C)c1NC(=O)Nc1cccc2c1O[C@@H](CN(C)Cc1ccc(-c3ccccc3)cc1)[C@@H](C)CN([C@H](C)CO)C2=O	inconclusive: 57.1%
COc1ccccc1-c1ccc2n(c1=O)C[C@@H]1[C@@H](CO)[C@H](C(=O)NC3CCC3)N(C(=O)NC(C)C)[C@H]21	inconclusive: 38.3%
CC(C)(C)c1ccc(NC(=O)CON=C(N)c2ccccc2)cc1	inconclusive: 50.9%
O=C1C=C(c2cc(Cl)cc(Cl)c2)C[C@@H](c2ccc(F)cc2)C1	inconclusive: 28.2%
CCS(=O)(=O)Nc1ccc2c(c1)C(=O)N(C)C[C@@H](OC)[C@H](C)CN(C(=O)c1ccc3c(c1)OCO3)[C@H](C)CO2	inactive: -3.15%
O=C(NCC(=O)N1CCN(C(c2ccccc2)c2ccccc2)CC1)c1ccccc1Br	inactive: 5.09%
Cc1noc(C)c1S(=O)(=O)Nc1cccc2c1O[C@H](CN(C)Cc1ccc3c(c1)OCO3)[C@H](C)CN([C@H](C)CO)C2=O	inconclusive: 26.3%
CC1(C)CC(=O)C=C(NC2CCCCC2)C1	inconclusive: 32.1%
CCOC(=O)N(C)C[C@@H]1OCc2cnnn2CCCC(=O)N([C@@H](C)CO)C[C@@H]1C	active: 70.1%
COC(=O)C[C@@H]1CC[C@@H]2[C@H](COc3ccc(NC(=O)Nc4cccc(Cl)c4)cc3C(=O)N2C)O1	inactive: -4.5%
CNCCCC1c2ccccc2C=Cc2ccccc21	active: 25.8%
CC(C)CN1CCCC(N2CCN(c3cccc(Cl)c3)CC2)C1 (stereo unspecified)	active: 26.7%
C[C@H]1CN([C@@H](C)CO)C(=O)c2c(c3ccccc3n2C)-c2ccccc2CO[C@H]1CN(C)Cc1ccc(Oc2ccccc2)cc1	inactive: 9.03%
COC(=O)C(CC(C)C)N(Cc1cc(OC)cc(OC)c1)S(=O)(=O)c1ccccc1Br (stereo unspecified)	inconclusive: 27.4%
C[C@H](CO)N1C[C@H](C)[C@H](CN(C)S(C)(=O)=O)Oc2cc(C3=CCCCC3)ccc2S1(=O)=O	inactive: 1.81%
CC(=O)Nc1ccc(CN(C)c2c(C)nc3ccc(C(=O)NCCCn4ccnc4)cn23)cc1	inconclusive: 43.5%
CCC(=O)N1CC2(CN(C(=O)c3cccnc3)C2)c2c([nH]c3cc(OC)ccc23)[C@H]1CO	inconclusive: 79%
CCN(C[C@H]1N[C@@H](CO)[C@@H]1c1ccccc1)C(=O)c1ccncc1	inactive: -5.86%
C[C@@H]1CN([C@@H](C)CO)C(=O)c2cc(Br)cnc2O[C@H]1CN(C)C(=O)Nc1ccc(F)cc1	inconclusive: 21.1%
C[C@H]1CCCCO[C@H](CN(C)CC2CC2)[C@@H](C)CN([C@@H](C)CO)C(=O)c2cc(NS(C)(=O)=O)ccc2O1	inactive: 2.25%
COc1ccc(S(=O)(=O)Oc2ccccc2C(N)=O)cc1	inconclusive: 61%

SMILES	CPE inhibition
COc1ccc(NC(=O)Nc2ccc3c(c2)C(=O)N([C@H](C)CO)C[C@H](C)[C@H](CN(C)C(=O)NC(C)C)OCCCC[C@H](C)O3)cc1	active: 33.5%
C[C@H](CO)N1C[C@H](C)[C@@H](CN(C)S(=O)(=O)c2ccccc2)OCCCC[C@H](C)Oc2ccc(NC(=O)Nc3ccc4c(c3)OCO4)cc2C1=O	active: 29.4%
CCCNC(=O)Nc1ccc2c(c1)OC[C@@H](C)N(C(=O)C1CC1)C[C@H](C)[C@@H](OC)CN(C)C2=O	inconclusive: 34.5%
O=C(Nc1cc(Cl)ccn1)C1(c2ccccc2)CC1(Cl)Cl (stereo unspecified)	inconclusive: 25.4%
Cc1ccc(C)c(CN2C(=O)CSc3ccc(C(=O)NCC(C)CN4CCC(C)CC4)cc32)c1 (stereo unspecified)	inconclusive: 60.3%
COC(=O)[C@]1(C)CCC[C@@]2(C)C3CC[C@@]4(C)C[C@]3(CCC21)CC(=O)N4Cc1ccc(OC)cc1 (stereo partly specified)	inconclusive: 27.7%
COc1ccccc1NC(=O)N(C)C[C@H]1Oc2ncc(Br)cc2C(=O)N([C@H](C)CO)C[C@@H]1C	inconclusive: 23.2%
CN1C(=O)c2cc(NC(=O)c3cccc(F)c3)ccc2OC[C@H]2O[C@@H](CC(=O)NCC3CC3)CC[C@H]21	active: 20.6%
Cc1ccc(S(=O)(=O)Nc2ccc3c(c2)C(=O)N([C@H](C)CO)C[C@H](C)[C@@H](CN(C)C(=O)C2CCCCC2)OCCCC[C@H](C)O3)cc1	inconclusive: 38.5%
O=C(c1ccc(F)cc1)N1C[C@@H]2[C@H](c3ccccc31)[C@H](CO)N2Cc1ccc2c(c1)OCO2	inconclusive: 29.2%
C[C@H](CO)N1C[C@H](C)[C@@H](CN(C)Cc2ccc3c(c2)OCO3)Oc2ccc(NC(=O)C3CCCCC3)cc2CC1=O	inconclusive: 54.6%
C[C@@H]1CN([C@H](C)CO)C(=O)Cc2cc(NC(=O)CCC(F)(F)F)ccc2O[C@H]1CN(C)C(=O)Nc1ccc(F)cc1	inconclusive: 46.4%
Cc1c(OCC(=O)N(C)c2ccccc2)ccc2c3c(c(=O)oc12)CCC3	inconclusive: 29.1%
C[C@H](CO)N1C[C@H](C)[C@H](CN(C)S(=O)(=O)c2ccccc2)Oc2ncc(C#Cc3ccc(C(F)(F)F)cc3)cc2C1=O	inconclusive: 26.6%
Cc1ccc(C(=O)Nc2ncc(Cc3ccc(SC(F)F)cc3)s2)cc1	inconclusive: 45.7%
CO[C@H]1CC[C@H]2CCOc3ccc(C#N)cc3C(=O)N(C)CCCC(=O)N(C)C[C@@H]1O2	inactive: -2.01%
CCCC1=Nc2cc(C(=O)NCCCN3CCOCC3)ccc2Sc2ccccc21	inactive: -2.73%
CCC(=O)N1[C@@H]2Cn3c(ccc(-c4ccccc4)c3=O)[C@H]1[C@@H](C(=O)N1CCCCC1)[C@@H]2CO	inactive: 4.01%
CCNC(=O)C[C@@H]1CC[C@@H]2[C@@H](COc3ccc(NS(C)(=O)=O)cc3C(=O)N2C)O1	inconclusive: 29.4%
C[C@@H]1CN([C@H](C)CO)C(=O)Cc2cc(NC(=O)Nc3ccccc3)ccc2O[C@H]1CN(C)C(=O)Nc1ccc(C(F)(F)F)cc1	inconclusive: 34.1%
Cc1ccc([C@H]2N[C@]3(CCCN(Cc4ccco4)C3=O)[C@H]3C(=O)N(C)C(=O)[C@@H]23)cc1	active: 59.5%
Cc1ccc(NC(=O)C2Cc3ccccc3CN2C(=O)c2ccco2)cc1S(=O)(=O)N(C)C (stereo unspecified)	inconclusive: 39.9%

In the list so far, four have a Cl atom.
SMILES	CPE inhibition
O=C1C=C(c2cc(Cl)cc(Cl)c2)C[C@@H](c2ccc(F)cc2)C1	inconclusive: 28.2%
COC(=O)C[C@@H]1CC[C@@H]2[C@H](COc3ccc(NC(=O)Nc4cccc(Cl)c4)cc3C(=O)N2C)O1	inactive: -4.5%
CC(C)CN1CCCC(N2CCN(c3cccc(Cl)c3)CC2)C1 (stereo unspecified)	active: 26.7%
O=C(Nc1cc(Cl)ccn1)C1(c2ccccc2)CC1(Cl)Cl (stereo unspecified)	inconclusive: 25.4%

2 neighbouring records out of the list so far:
SMILES	CPE inhibition
O=C(Nc1cc(Cl)ccn1)C1(c2ccccc2)CC1(Cl)Cl (stereo unspecified)	inconclusive: 25.4%
Cc1ccc(C)c(CN2C(=O)CSc3ccc(C(=O)NCC(C)CN4CCC(C)CC4)cc32)c1 (stereo unspecified)	inconclusive: 60.3%

(list continues)

SMILES	CPE inhibition
CCCc1cc(=O)oc2cc(C)cc(OCC(=O)N3CCC(C(=O)O)CC3)c12	inconclusive: 40.3%
COC(=O)C[C@H]1CC[C@H]2[C@H](COc3ccc(NC(=O)c4ccc(OC)cc4)cc3C(=O)N2C)O1	inactive: 1.18%
COCc1cccc(-c2csc(C(NC(C)=O)c3ccccc3)n2)c1 (stereo unspecified)	inconclusive: 21.4%
CC(C)n1c(O)c(/C=C2\C=NN=C2c2ccccc2)sc1=S	inactive: 10.5%
C[C@H](CO)N1C[C@H](C)[C@H](CN(C)Cc2ccccc2)Oc2ccc(NS(=O)(=O)c3ccc(Cl)cc3)cc2CC1=O	active: 27.7%
COc1ccc(-c2nc3ccccc3nc2-c2ccc(OC)c(OC)c2)cc1OC	inactive: -1.98%
CC(=O)N1CCN(c2ccc(NC(=O)/C=C/c3ccccc3)cc2)CC1	inactive: -2.41%
Cc1noc(C)c1NC(=O)Nc1cccc2c1O[C@H](CN(C)Cc1ccc(-c3ccccc3)cc1)[C@@H](C)CN([C@@H](C)CO)C2=O	inconclusive: 44.4%
C[C@H](CO)N1C[C@H](C)[C@H](CN(C)S(=O)(=O)c2ccc(Cl)cc2)Oc2ccc(NC(=O)Nc3ccc4c(c3)OCO4)cc2C1=O	active: 29.2%
O=C(Nc1ccccc1)c1cc(C2CCCCN2C(=O)CCc2ccccc2)on1 (stereo unspecified)	inconclusive: 20.9%
CN1C(=O)c2cc(NC(=O)c3cccc(F)c3)ccc2OC[C@H]2O[C@H](CC(=O)O)CC[C@H]21	inactive: 12.6%
Cc1ccc(NC(=O)CNC(=O)c2cccs2)cc1S(=O)(=O)Nc1ccc(Cl)cc1	inactive: 9.51%
C[C@H]1CN([C@@H](C)CO)C(=O)c2cc(NC(=O)Cn3cnnn3)ccc2O[C@H]1CN(C)CC1CC1	inactive: -5.96%
C[C@@H]1CCCCO[C@H](CN(C)Cc2ccccc2)[C@@H](C)CN([C@H](C)CO)C(=O)c2cc(NC(=O)CCCN(C)C)ccc2O1	inconclusive: 20.5%
C[C@@H]1CCCCO[C@@H](CN(C)Cc2ccc3c(c2)OCO3)[C@H](C)CN([C@@H](C)CO)C(=O)c2cc(NC(=O)c3ccncc3)ccc2O1	inconclusive: 74.8%
Cc1noc(C)c1NC(=O)Nc1ccc2c(c1)C(=O)N([C@H](C)CO)C[C@H](C)[C@H](CN(C)Cc1ccc(Cl)c(Cl)c1)OCCCC[C@H](C)O2	active: 26.6%
CCN(CC(=O)NCc1cccs1)C(=O)c1ccc(S(=O)(=O)Nc2ccccc2C)cc1	inconclusive: 26%
COc1ccccc1N(CC(=O)N1CCCC1)S(=O)(=O)c1ccc(C)cc1	active: 54.4%
COc1cc(/C=N/NC(=O)c2cncc(Br)c2)cc([N+](=O)[O-])c1O	inconclusive: 28%
CN(C)CCCNC(=O)[C@H]1[C@H](CO)[C@H]2Cn3c(ccc(-c4ccccc4)c3=O)[C@@H]1N2C	active: 46.7%
CC(=O)OCC1OC(OCc2cn(C[C@H]3CC[C@@H]([C@@H]4CC[C@H](Cn5cc(COC6OC(COC(C)=O)C(OC(C)=O)C(OC(C)=O)C6OC(C)=O)nn5)O4)O3)nn2)C(OC(C)=O)C(OC(C)=O)C1OC(C)=O (stereo partly specified)	inconclusive: 44.5%
CC(C)CC#Cc1ccc2c(c1)O[C@@H](CN(C)Cc1ccc3c(c1)OCO3)[C@@H](C)CN([C@@H](C)CO)S2(=O)=O	inactive: -2.13%
